In PubChem BioAssay (NCATS):
Inconclusive results, whose numbers are uncertain, are shown with a selection of clear calls. A potency beside an inconclusive call is a rough fit, not a confirmed value. The source made the active and inactive calls. Calls follow the shape of the dose curve; as a rule, active = well fitted cell-killing curve with a large enough effect; inconclusive = small, poorly fitted or top-dose-only effect, or effect the other way; inactive = no such curve, though single readings can be large or run the other way.
Potency is read from the fitted curve at half-maximal effect.

Assay: Quantitative High-Throughput drug screen in 47 multiple myeloma cell lines against the NCATS MIPE library collection: L363_DSMZ cell viability assay (AID 1918984); also: nearly all actives have a fitted effect of over 40% in size
Conditions: L363 myeloma viability, CellTiter-Glo ATP luminescence, 48 h; viability (% of control): at 45.8 µM (top of the series)
Method in brief: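 ATP-based luminescence (CellTiter-Glo, 5 min RT incubation) quantified surviving cells following two days' treatment with MIPE 4.0 agents at 37 °C, 5% CO2.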
In the case of CC(C)NCC(O)COc1ccc(COCCOC(C)C)cc1 (configuration not stated), the Potency is reported as inconclusive: 0.0118 µM [rising, full curve, poor fit]. For OCCN(CCO)c1nc(N2CCCCC2)c2nc(N(CCO)CCO)nc(N3CCCCC3)c2n1, the Potency was inconclusive: 26.4 µM [cytotoxic, partial curve, poor fit]. With CN1CCN(Cc2ccc(NC(=O)Nc3ccc(Oc4cc(NC(=O)C5CC5)ncn4)cc3)cc2C(F)(F)F)CC1 the “viability (% of control)” value was inactive: 107%. With C=CCc1ccc(O)c(-c2ccc(O)c(CC=C)c2)c1 the Potency was inconclusive: 18.7 µM [cytotoxic, partial curve, poor fit]. In the case of O=C(C1CC1)N1CC[C@@H](Cn2c(-c3ccc(-c4ccc5occc5c4)cc3)nc3cnccc32)C1, the Potency is reported as inconclusive: 6.62 µM [cytotoxic, partial curve, poor fit]. For O=c1c(O)c(-c2cc(O)c(O)c(O)c2)oc2cc(O)cc(O)c12, the Potency was inconclusive: 14.8 µM [cytotoxic, partial curve, poor fit]. With CCOC(CN1C(=O)[C@](CC(=O)Nc2ccc(C)cc2)(NC(=O)Nc2ccc(C)cc2)c2ccccc21)OCC the Potency was inconclusive: 14.8 µM [cytotoxic, partial curve, poor fit]. In the case of COC1CCC(N(C(=O)C2CCC(C)CC2)c2cc(C3=CCCCC3)sc2C(=O)O)CC1 (configuration not stated), the “viability (% of control)” value is reported as inactive: 94.7%. For Cc1onc(-c2ccccc2)c1C(=O)N[C@@H]1C(=O)N2[C@@H](C(=O)O)C(C)(C)S[C@@H]12, the Potency was inconclusive: 0.235 µM [cytotoxic, full curve, poor fit]. In the case of NC(=O)c1ncn([C@@H]2O[C@H](CO)[C@@H](O)[C@@H]2O)c1N, the Potency is reported as inconclusive: 0.0372 µM [cytotoxic, full curve, poor fit]. For CO[C@H]1/C=C\O[C@@]2(C)Oc3c(C)c(O)c4c(O)c(c5c(nc6cc(C)ccn65)c4c3C2=O)NC(=O)C(C)=CC=C[C@H](C)[C@H](O)[C@@H](C)[C@@H](O)[C@@H](C)[C@H](OC(C)=O)[C@H]1C, the Potency was active: 20.9 µM. For N#Cc1cc(NC(=O)Nc2nnc(-c3ccncc3)s2)ccc1-c1cn[nH]c1, the Potency was inconclusive: 0.235 µM [cytotoxic, full curve, poor fit]. In the case of CN(C)c1ccc(O)c2c1C[C@H]1C[C@H]3[C@H](N(C)C)C(=O)C(C(N)=O)=C(O)[C@@]3(O)C(=O)C1=C2O, the Potency is reported as inconclusive: 0.187 µM [cytotoxic, full curve, poor fit]. For C=C[C@@H]1CN2CCC1C[C@@H]2C(O)c1ccnc2ccc(OC)cc12 (some centres not stated), the “viability (% of control)” value was inactive: 101%. For CCOC(=O)N[C@@H]1CC[C@@H]2[C@@H](C1)C[C@H]1C(=O)O[C@H](C)[C@H]1[C@@H]2C=Cc1ccc(-c2cccc(F)c2)cn1, the Potency was inconclusive: 11.8 µM [cytotoxic, partial curve, poor fit]. For CC[C@H](C=C[C@@H](C)[C@H]1CC[C@H]2[C@@H]3CC=C4C[C@@H](O)CC[C@]4(C)[C@@H]3CC[C@]12C)C(C)C, the “viability (% of control)” value was inactive: 75% [at 23.2 µM]. With N=C(N=C(N)N)N1CCOCC1 the Potency was inconclusive: 0.833 µM [rising, full curve, poor fit]. With O=C(NC1CCOCC1)c1ccc(-c2cc(-c3cn[nH]c3-c3ccccn3)ccn2)cc1 the Potency was inconclusive: 0.105 µM [cytotoxic, full curve, poor fit]. In the case of N[C@@H](Cc1cc(I)c(Oc2cc(I)c(O)c(I)c2)c(I)c1)C(=O)O, the “viability (% of control)” value is reported as inactive: 80.2%. In the case of CCC(=O)N[C@H]1CC[C@H](C(=O)N(C)c2ccc(-c3nc4ccccc4o3)cc2)C1, the Potency is reported as active: 16.6 µM. With COc1ccccc1OCCNCC(O)COc1cccc2[nH]c3ccccc3c12 (configuration not stated) the Potency was inconclusive: 23.5 µM [cytotoxic, partial curve, poor fit]. In the case of CC1(C)CCC(C)(C)c2cc(NC(=O)c3ccc(C(=O)O)cc3)ccc21, the Potency is reported as inconclusive: 4.69 µM [cytotoxic, partial curve, poor fit]. With CC[C@H]1OC(=O)[C@H](C)[C@@H](O[C@H]2C[C@@](C)(OC)[C@@H](O)[C@H](C)O2)[C@H](C)[C@@H](O[C@@H]2O[C@H](C)C[C@H](N(C)C)[C@@H]2O)[C@](C)(OC)C[C@@H](C)C(=O)[C@H](C)[C@@H](O)[C@]1(C)O the “viability (% of control)” value was inactive: 74.1%. With CCCCCCCCCC(=O)N[C@@H](Cc1c[nH]c2ccccc12)C(=O)N[C@H](CC(N)=O)C(=O)N[C@@H](CC(=O)O)C(=O)N[C@@H]1C(=O)NCC(=O)N[C@@H](CCCN)C(=O)N[C@@H](CC(=O)O)C(=O)N[C@H](C)C(=O)N[C@@H](CC(=O)O)C(=O)NCC(=O)N[C@H](CO)C(=O)N[C@@H]([C@@H](C)CC(=O)O)C(=O)N[C@@H](CC(=O)c2ccccc2N)C(=O)O[C@@H]1C the “viability (% of control)” value was inactive: 90.6%. With CCOC(=O)Nc1ccc(NCc2ccc(F)cc2)nc1N the Potency was inconclusive: 0.418 µM [cytotoxic, full curve, poor fit]. For CCn1cc(C(=O)O)c(=O)c2cc(F)c(N3CCNCC3)nc21, the “viability (% of control)” value was inactive: 83.8%. In the case of CCC[C@@H](NC(=O)[C@@H]1[C@H]2CCC[C@@H]2CN1C(=O)[C@@H](NC(=O)[C@@H](NC(=O)c1cnccn1)C1CCCCC1)C(C)(C)C)C(=O)C(=O)NC1CC1, the Potency is reported as inconclusive: 20.9 µM [cytotoxic, partial curve, poor fit]. With CNc1nc(Nc2ccc(C(=O)N3CCOCC3)cc2OC)ncc1Cl the Potency was inconclusive: 0.148 µM [cytotoxic, full curve, poor fit]. For CC(=O)O[C@]1(C(C)=O)CC[C@H]2[C@@H]3C=C(Cl)C4=CC(=O)[C@@H]5C[C@H]5[C@]4(C)[C@@H]3CC[C@@]21C, the Potency was inconclusive: 20.9 µM [cytotoxic, partial curve, poor fit]. With CCN(CC)CCOc1ccc(C(=C(Cl)c2ccccc2)c2ccccc2)cc1 the Potency was inconclusive: 14.8 µM [cytotoxic, partial curve, poor fit]. With O=c1[nH]c(=O)n(C2CCCO2)cc1F (configuration not stated) the “viability (% of control)” value was inactive: 101% [at 92.2 µM]. For O=C(O)c1ccc(-c2cc3cccnc3c(-c3ccc4nonc4c3)n2)cc1, the Potency was inconclusive: 33.2 µM [cytotoxic, single point]. With CN[C@@H](C)C(=O)N[C@H]1CN(C(=O)CC(C)C)CC[C@H]2CC[C@@H](C(=O)NC(c3ccccc3)c3ccccc3)N2C1=O the Potency was inconclusive: 0.833 µM [cytotoxic, full curve, poor fit]. With CN(C)c1ccc(C2Nc3ccc4ccccc4c3C3=C2C(=O)CC(C)(C)C3)cc1Br (configuration not stated) the “viability (% of control)” value was inactive: 118%. For OC[C@H]1O[C@@H](Oc2cc(O)cc(C=Cc3ccc(O)cc3)c2)[C@H](O)[C@@H](O)[C@H]1O, the Potency was inconclusive: 20.9 µM [cytotoxic, single point]. In the case of CN(C)CCOC(c1ccccc1)c1ccccc1, the Potency is reported as inconclusive: 7.43 µM [rising, single point]. With CN(CCOc1ccc(CC2SC(=O)NC2=O)cc1)c1ccccn1 (configuration not stated) the Potency was inconclusive: 0.0042 µM [cytotoxic, full curve, poor fit].
